# Source: publication PMC7819943, “Rice protein-binding microarrays: a tool to detect cis-acting elements near promoter regions in rice”
# Chains of the proteins cited; added tags and fusions are not shown.
# UniProt Q0JBA9, entry or part of it: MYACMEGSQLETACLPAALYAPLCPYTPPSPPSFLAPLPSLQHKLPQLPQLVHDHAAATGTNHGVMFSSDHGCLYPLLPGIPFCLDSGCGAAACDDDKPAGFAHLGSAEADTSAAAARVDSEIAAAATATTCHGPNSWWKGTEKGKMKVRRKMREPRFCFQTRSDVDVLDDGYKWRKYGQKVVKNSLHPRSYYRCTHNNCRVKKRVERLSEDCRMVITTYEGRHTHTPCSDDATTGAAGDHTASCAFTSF
# Some of the results follow.
# Target: OsWRKY34 (Oryza sativa, UniProt Q0JBA9 1-250)
# Experiment: protein-binding microarray (RPBM); PBS, 2% BSA, 51.3 ng/ul salmon testes DNA, 50 uM zinc acetate, 200 nM TF, 25 C, 1 h; high values mean tight binding
# Conditions: protein: recombinant; tags: N-terminal polyhistidine and DsRed monomer fusion (pET32a); label: CyDye5-dUTP incorporated in the synthesized complementary strand; 3' TTTTT single-stranded linker to array surface; dsDNA, one strand shown
# Procedure, shortened: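 Transcription factors, each fused N-terminally to a polyhistidine tag and DsRed, were expressed in E. coli BL21-CodonPlus and purified on Ni–NTA. A custom Agilent array was made double-stranded by primer extension with Cy5-dUTP and blocked with 2% BSA. It was incubated with 200 nM protein in PBS, 2% BSA, salmon testes DNA and 50 µM zinc acetate at 25 °C for 1 h, then washed. The binding signal is per-feature fluorescence intensity (arbitrary units) read on an Axon 4000B scanner.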
row,Sequence,binding signal
1,ACAGCCGCGTCGCCGCTTGTCCGCCTGCGCTCGTTCTCGCCGGAGTCACCTAGTGCAG,9640 fluorescence intensity (a.u.)
2,AGAGTACATTCTAGAAGCCCTATGCCTTATCCTATATAAACGGAGTCACCTAGTGCAG,8420 fluorescence intensity (a.u.)
3,ATATGCTGTCTTTTACTTGACTTGTAGTGCAACCTTCCACCGGAGTCACCTAGTGCAG,12100 fluorescence intensity (a.u.)
4,ATAAATCCCTTTCTTACCTGTGCCGGCTTCTCCGCTTGTTCGGAGTCACCTAGTGCAG,8700 fluorescence intensity (a.u.)
5,GTTACTGTTGTTACCTATCTTGCTCTTTGTGCCCGTGTTGCGGAGTCACCTAGTGCAG,9800 fluorescence intensity (a.u.)
6,GTTGGGTGGCCTCCCTCCGTTTCTGCCTTCTTCATTGTCACGGAGTCACCTAGTGCAG,8180 fluorescence intensity (a.u.)
7,GTTACTAAATTTTGGTAGCGTTGGTTGCATTTGGGGCCATCGGAGTCACCTAGTGCAG,10100 fluorescence intensity (a.u.)
8,GGCCAGCAAACCCAACGCGCCGTCATTATCACACCACACACGGAGTCACCTAGTGCAG,10400 fluorescence intensity (a.u.)
9,TGTTTATGGATGGACTATGTGGGGTCAGTCGCCTCCGTAGCGGAGTCACCTAGTGCAG,10500 fluorescence intensity (a.u.)
10,CAAGTCACCCAATCATCATCATCAAACGCCAACCAACAGCCGGAGTCACCTAGTGCAG,8630 fluorescence intensity (a.u.)
11,TCCTTTCCTACTTGGATTCCATTCTCATCTCTCTCTCTCTCGGAGTCACCTAGTGCAG,8130 fluorescence intensity (a.u.)
12,ATTTTAATTCCGAATTTCAGTTATTTCCTAATTGTATTTCCGGAGTCACCTAGTGCAG,8100 fluorescence intensity (a.u.)
13,TAAAAATATATTAATATATTTTTCAAGTTTTTTACTAATACGGAGTCACCTAGTGCAG,9060 fluorescence intensity (a.u.)
14,TTTGATGTGACATGATGTAAAGTTTTGGGATGGGATCTAACGGAGTCACCTAGTGCAG,8700 fluorescence intensity (a.u.)
15,ACCTGGCCATAAATATATATATTGCTGCCCGTATTCCTGTCGGAGTCACCTAGTGCAG,8710 fluorescence intensity (a.u.)
16,TAGTGAGTGTGCATGTGTTATAAGTCTGCAATTGTACCGTCGGAGTCACCTAGTGCAG,10300 fluorescence intensity (a.u.)
17,GCGAACCGCGAATACAATAGCCGGCGCCCCGCGCGTACACCGGAGTCACCTAGTGCAG,8070 fluorescence intensity (a.u.)
18,CATCGTCACCGCCGATGACCGGTTATATTTATCTTCATGACGGAGTCACCTAGTGCAG,9120 fluorescence intensity (a.u.)
19,CAGATTCACATGACCAACAACATCCAGACCATGGCCGATTCGGAGTCACCTAGTGCAG,8140 fluorescence intensity (a.u.)
20,GACCCCTCCGACCGCTACGCCAACCACAACACCGTCTTCTCGGAGTCACCTAGTGCAG,9430 fluorescence intensity (a.u.)
21,GAGATGGATAGGGAGAGGGCTCACAGTCGCCGAGGCGGTCCGGAGTCACCTAGTGCAG,8460 fluorescence intensity (a.u.)

row,Sequence,binding signal
1,TGGATCATCGCAGCTTAAACATTAATTTGTTCTCGTCTTTCGGAGTCACCTAGTGCAG,9890 fluorescence intensity (a.u.)
2,ATTTGCCACTCTTACAAATGGTGCTTAATGATTTGCCACTCGGAGTCACCTAGTGCAG,8120 fluorescence intensity (a.u.)
3,TAATTCCTATGTTTTTTCAATCATCTGTTTTAGACTTGTACGGAGTCACCTAGTGCAG,9380 fluorescence intensity (a.u.)
4,CCATTGCTGCTGCCAACCCTATTCCTCTCTCTTCCACCGCCGGAGTCACCTAGTGCAG,8030 fluorescence intensity (a.u.)
5,ATTGAGCGATTTTCGGTATTTCACGATGGGTTATATTTTACGGAGTCACCTAGTGCAG,8720 fluorescence intensity (a.u.)
6,GTGTGGTGACGGTCGGGGAGGGTGGCTGCGCGCAGTGCCTCGGAGTCACCTAGTGCAG,10900 fluorescence intensity (a.u.)
7,CGTGGCTGCCCTCAACCAACTTTGGCCTCTCATCTTATCCCGGAGTCACCTAGTGCAG,8950 fluorescence intensity (a.u.)
8,AAACCTTTTTTTTTCTCTTCGCTCTCACAAAAGACAAACTCGGAGTCACCTAGTGCAG,8240 fluorescence intensity (a.u.)
9,ACTGAGTCCTCGCCGACGTCGTTGCTTGCACCAACCAACTCGGAGTCACCTAGTGCAG,9770 fluorescence intensity (a.u.)
10,TGTGGGTGTGTTTGTGTGCTCAGTTTGGATTAGGGCAAGTCGGAGTCACCTAGTGCAG,12200 fluorescence intensity (a.u.)
11,TGTGGTTTGGGTGCTCTGCTCTCGTGTGACCAGCCGATTTCGGAGTCACCTAGTGCAG,9030 fluorescence intensity (a.u.)
12,GTTGTCAGTGTGGTTATTGGAGCAGTTGCCATCGATCATGCGGAGTCACCTAGTGCAG,9230 fluorescence intensity (a.u.)
13,TCACGGTTCGACTACATCGGCTCTTCAGTGTCATCTACCTCGGAGTCACCTAGTGCAG,9870 fluorescence intensity (a.u.)
14,AACAGGATGGCTTCCGCGCAGGATCCCTTCTACATCGTCACGGAGTCACCTAGTGCAG,8810 fluorescence intensity (a.u.)
15,ACGAATAGCAGCCTTATCATGTTTGTTTCTGTTTCCGAGACGGAGTCACCTAGTGCAG,8330 fluorescence intensity (a.u.)
16,GCTTATTCTCTCAATTTCAATCGACCGCTGTTAGTATATCCGGAGTCACCTAGTGCAG,9540 fluorescence intensity (a.u.)
17,AGCACTTCATCTTTTATGCAGATTCTATCAGTTGGAAAATCGGAGTCACCTAGTGCAG,8160 fluorescence intensity (a.u.)
18,AACCTTAGCATAGTTGCATGTTATATACTTTTCCTGATAACGGAGTCACCTAGTGCAG,8470 fluorescence intensity (a.u.)
19,TACCTCCGTTTTCTAATAGATGACGCCGTTGACTTTTTCTCGGAGTCACCTAGTGCAG,20700 fluorescence intensity (a.u.)
20,GGAGCTACTATATATTACCGGGGTCTAATGATCTGGATGACGGAGTCACCTAGTGCAG,8530 fluorescence intensity (a.u.)
21,GTTTCTTTGCATGCCGACTCATTTCTCCTTTAGTTCAGTGCGGAGTCACCTAGTGCAG,9900 fluorescence intensity (a.u.)

row,Sequence,binding signal
1,CAATTGACGCGCCTCGGTATAACCTCACTAGCTGCGTCATCGGAGTCACCTAGTGCAG,8280 fluorescence intensity (a.u.)
2,TATTTTCCCTTTCAATTTATCACTGATTTTGCTATGTTTACGGAGTCACCTAGTGCAG,9000 fluorescence intensity (a.u.)
3,CCTCCATAGCCGCCGCCGCTCCACCACCTTGTGCGGACATCGGAGTCACCTAGTGCAG,9560 fluorescence intensity (a.u.)
4,CCTCTCACTCTTTCTCACGCTTCACTCTCCTTCCTCCCACCGGAGTCACCTAGTGCAG,8660 fluorescence intensity (a.u.)
5,CCACTCCTCCAATAGCTCATCTGCCGCCGCCGCGTCGTTCCGGAGTCACCTAGTGCAG,11900 fluorescence intensity (a.u.)
6,TTAGGCTGACGCACGAGCAAACCACTTGATAGTTGACCGCCGGAGTCACCTAGTGCAG,8270 fluorescence intensity (a.u.)
7,GAGTCTACCGTACGTCCTTCTCATATATACGTCGGCTTCCCGGAGTCACCTAGTGCAG,12600 fluorescence intensity (a.u.)
8,ACCTTACTTTACCATTGTGGGTGCTCTTAGGAGCAGCTGTCGGAGTCACCTAGTGCAG,8480 fluorescence intensity (a.u.)
9,CAGCTACATGCCTCCTGTCTCTGTGCGTCATGCCGTCATCCGGAGTCACCTAGTGCAG,9300 fluorescence intensity (a.u.)
10,ACCCTCCTGTTAATCTTTTCTAGATCCGCTCCTGCTTTTCCGGAGTCACCTAGTGCAG,8820 fluorescence intensity (a.u.)
11,TCCCACGTACTATTTTTAAATTATTTTTTGCTGACTAGGACGGAGTCACCTAGTGCAG,8350 fluorescence intensity (a.u.)
12,ACGACTTAACCTCCTCCCTGCCTTGTCCTCATCGGCGCTTCGGAGTCACCTAGTGCAG,8120 fluorescence intensity (a.u.)
13,CATCTCGTCTCCTCTGGTATCCCGGCGGCAGCCACCTTCTCGGAGTCACCTAGTGCAG,8980 fluorescence intensity (a.u.)
14,TCTCGTCTCGGCGCCATGTGTTCTGTTCCGATATTTTTTGCGGAGTCACCTAGTGCAG,15600 fluorescence intensity (a.u.)
15,CTATTGTTTATTTTTCGCGTTCATAGGACCTACATTACCCCGGAGTCACCTAGTGCAG,14200 fluorescence intensity (a.u.)
16,TCTCTTTGATTATCTCACTATCTAGTTGGGTGCACAAACACGGAGTCACCTAGTGCAG,10100 fluorescence intensity (a.u.)
17,TTATCAATTTGTTATTGTGTGCCTCGGCTGATTCCTGGATCGGAGTCACCTAGTGCAG,8020 fluorescence intensity (a.u.)
18,CTTTCTCGTGTCCTTAGATTTCTTGGTTCTTGGTAACGCCCGGAGTCACCTAGTGCAG,8840 fluorescence intensity (a.u.)
19,AGATTACATTTTATCAACGTGCATTCTACTCTTTTGATTACGGAGTCACCTAGTGCAG,10900 fluorescence intensity (a.u.)
20,GTCACTTTCACAATCCAAACAAGCACATTTGTCTGCTCTCCGGAGTCACCTAGTGCAG,8220 fluorescence intensity (a.u.)
21,ATATAACGCCACTGCCTCGCCGCCGCTGCTACCACCTCTCCGGAGTCACCTAGTGCAG,9280 fluorescence intensity (a.u.)

# As a short view, part of the list above:
row,Sequence,binding signal
2,TATTTTCCCTTTCAATTTATCACTGATTTTGCTATGTTTACGGAGTCACCTAGTGCAG,9000 fluorescence intensity (a.u.)
3,CCTCCATAGCCGCCGCCGCTCCACCACCTTGTGCGGACATCGGAGTCACCTAGTGCAG,9560 fluorescence intensity (a.u.)
4,CCTCTCACTCTTTCTCACGCTTCACTCTCCTTCCTCCCACCGGAGTCACCTAGTGCAG,8660 fluorescence intensity (a.u.)
5,CCACTCCTCCAATAGCTCATCTGCCGCCGCCGCGTCGTTCCGGAGTCACCTAGTGCAG,11900 fluorescence intensity (a.u.)

# Additional results

row,Sequence,binding signal
1,TTTCTCTCACGTTGACCCTTCACATAGCAGTGTTGTAGGACGGAGTCACCTAGTGCAG,9080 fluorescence intensity (a.u.)
2,TTCTCATCGTGTTGTTTTATTTATTATCCTGCGGGTTAATCGGAGTCACCTAGTGCAG,9200 fluorescence intensity (a.u.)
3,GAAAATTTTTGGGTGTCACATCGGACGTTTGACCGGATGTCGGAGTCACCTAGTGCAG,9700 fluorescence intensity (a.u.)
4,TCATTTGCTTTTCCTTTTTGCTGAATAGTGTGAACTTCCTCGGAGTCACCTAGTGCAG,10100 fluorescence intensity (a.u.)
5,TTGTTGTTTGGGTGAACCCGCGCGGCCATCATCGCACGCGCGGAGTCACCTAGTGCAG,8450 fluorescence intensity (a.u.)
6,GCGTCATTAACTTGTTTTGCCTGCCACCGCCTTCTTGGTTCGGAGTCACCTAGTGCAG,12300 fluorescence intensity (a.u.)
7,GTTCTATTCAGTTCTGCTACCTTTATCACATCACTTGCACCGGAGTCACCTAGTGCAG,9360 fluorescence intensity (a.u.)
8,GCTTCTAGTTCATTTTCTAGATTCCGTAACTACAGCTTCTCGGAGTCACCTAGTGCAG,9280 fluorescence intensity (a.u.)
9,GACGAAAGATCCACTTGCCGGTGACGACGTTGGCGCCATGCGGAGTCACCTAGTGCAG,8100 fluorescence intensity (a.u.)
10,TTGCCTCCAATTAACCCATTCAGTTTCTTCCGTATTTCTTCGGAGTCACCTAGTGCAG,8700 fluorescence intensity (a.u.)
11,ACATCCATTATGACTTCATCAGCCTTCAGCCTTCAAATTTCGGAGTCACCTAGTGCAG,8540 fluorescence intensity (a.u.)
12,TCCTCCTCGTGCGCTCTCTCTCTCTCTCTCTCACTCGCTCCGGAGTCACCTAGTGCAG,8050 fluorescence intensity (a.u.)
13,ACTTAACAACGTCCATATACTCCTTTTGTTTTTACAATAACGGAGTCACCTAGTGCAG,9800 fluorescence intensity (a.u.)
14,AATATTCTTTTGCACTCACCCAACCCACCCACTGATATAACGGAGTCACCTAGTGCAG,8330 fluorescence intensity (a.u.)
15,GCCTCCTCTGCCGTATTTGCCGCCTTCGGCCACCAACACCCGGAGTCACCTAGTGCAG,9080 fluorescence intensity (a.u.)
16,ATTTACAATTCACCTTTAGTTTTTAACATTTGTTATTTCACGGAGTCACCTAGTGCAG,9680 fluorescence intensity (a.u.)
17,TGACTGACGTGGGATGCTTTTGACCAACCTTTGACTGAGGCGGAGTCACCTAGTGCAG,11200 fluorescence intensity (a.u.)
18,CATGCCCACTGTTCATCTCCAAAATCGATCCCCACACAGTCGGAGTCACCTAGTGCAG,12600 fluorescence intensity (a.u.)
19,ATACTTAATTAATCATTCGCTAATGGACCACTCTGTTTTCCGGAGTCACCTAGTGCAG,8430 fluorescence intensity (a.u.)
20,GCTCACTTTCAGTTCGTTCGATCTCGCTTCCATTTCTTCGCGGAGTCACCTAGTGCAG,10800 fluorescence intensity (a.u.)
21,GTTTGGGATGTCGCGGGGATTTAGGGGCGGTGGGTGGTTTCGGAGTCACCTAGTGCAG,39300 fluorescence intensity (a.u.)
